PubChem BioAssay AID720505, Drosophila RNAi Screening Center, 2013
The screen tested about 20,000 reagents; this is an unselected part of those that have a named target and a result. Over the whole deposit, about 2,100 (10%) got an active call. 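Raw plate signals without normalisation; calls rest on control-based scores that were not deposited; replicate 2 separates called from uncalled poorly.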 A plus sign joins genes that one reagent is predicted to hit. Not given: the amount of reagent, the time to read-out.

Purpose: 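Fly regulators or components of the CRAC channel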 (primary screen)
Cells: Drosophila S2R+ cells
Knock-down reagent: long dsRNA against Drosophila genes
Treatment: thapsigargin (2 µM) in calcium-free buffer to empty internal stores, then 2 mM calcium added back
Measurement: 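Stores emptied by 2 µM thapsigargin without calcium, then 2 mM calcium re-added; fluo-4 fluorescence followed by FLIPR in 384-well plates, per-well averaged endpoint, raw; two screen passes, some wells retested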
Reading the numbers: calcium signal: higher = more calcium entry after store depletion
Call rule: 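About 1500 genes called as lowering calcium entry, by varying amounts, judged against per-plate control wells with STIM1 as positive and Rho1 as negative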
Calls: active = called as lowering calcium entry; inactive = not called

CG14280 [DRSC14761] showed calcium signal, replicate 1 = 198; calcium signal, replicate 2 = 208; inactive.
After knock-down of TBC1d7 (TBC1 domain family member 7) [DRSC15985], the record shows calcium signal, replicate 1 = 188; calcium signal, replicate 2 = 131; inactive.
For Tssk (Testis-specific serine/threonine kinase) [DRSC14784], the entry reads calcium signal, replicate 1 = 162; calcium signal, replicate 2 = 147; inactive.
Silencing of ND-75 (NADH dehydrogenase (ubiquinone) 75 kDa subunit) [DRSC18686] gave: calcium signal, replicate 1 = 168; calcium signal, replicate 2 = 85.8; inactive.
Depletion of fand (fandango) [DRSC06967] resulted in: calcium signal, replicate 1 = 109; calcium signal, replicate 2 = 88.5; inactive.
Silencing of Cpr78E (Cuticular protein 78E) [DRSC11807] came out at: calcium signal, replicate 1 = 117; calcium signal, replicate 2 = 155; inactive.
Apl (Apollo) [DRSC10350] scored calcium signal, replicate 1 = 88.3; calcium signal, replicate 2 = 152; inactive.
With knock-down of CG11593 [DRSC08206], the record shows calcium signal, replicate 1 = 88; calcium signal, replicate 2 = 86.4; inactive.

Copied from the entries so far for reference:
Tssk (Testis-specific serine/threonine kinase) [DRSC14784] → calcium signal, replicate 1: 162; calcium signal, replicate 2: 147; Call: inactive
ND-75 (NADH dehydrogenase (ubiquinone) 75 kDa subunit) [DRSC18686] → calcium signal, replicate 1: 168; calcium signal, replicate 2: 85.8; Call: inactive

The listing continues.
After knock-down of tst + CG10375 [DRSC14237], the record shows calcium signal, replicate 1 = 252; calcium signal, replicate 2 = 322; inactive.
fidipidine [DRSC07618] scored calcium signal, replicate 1 = 156; calcium signal, replicate 2 = 147; inactive.
For ktub (king tubby) [DRSC04551], the values are calcium signal, replicate 1 = 157; calcium signal, replicate 2 = 132; inactive.
Against Jon44E (Jonah 44E) [DRSC07216] the deposit lists calcium signal, replicate 1 = 131; calcium signal, replicate 2 = 151; inactive.
With knock-down of CG5181 [DRSC02825], the screen gave calcium signal, replicate 1 = 151; calcium signal, replicate 2 = 216; inactive.
mRpL39 (mitochondrial ribosomal protein L39) [DRSC10255] scored calcium signal, replicate 1 = 124; calcium signal, replicate 2 = 141; inactive.
For CG7879 [DRSC08600] the deposit lists calcium signal, replicate 1 = 122; calcium signal, replicate 2 = 96.8; inactive.
For GAPsec (GTPase activating protein, SECIS-dependent read-through) [DRSC10564] the deposit lists calcium signal, replicate 1 = 190; calcium signal, replicate 2 = 153; inactive.
sima (similar) [DRSC17055] scored calcium signal, replicate 1 = 221; calcium signal, replicate 2 = 178; inactive.
With knock-down of sima (similar) [DRSC23203], the screen gave calcium signal, replicate 1 = 127; calcium signal, replicate 2 = 156; inactive.
Against kri (krishah) [DRSC10515], the values are calcium signal, replicate 1 = 97.9; calcium signal, replicate 2 = 134; inactive.
